According to US20100203044A1, “DR6 ANTAGONISTS AND USES THEREOF IN TREATING NEUROLOGICAL DISORDERS” (priority 2006, published 2010):
At least one structure is not confirmed: it was looked up by name or label, or the drawing left a doubt.

System: sensory neurons
Assay: NGF deprivation assay in Campenot Chambers, local sensory axonal degeneration
Type: cell-based, mouse
Settings: neurons cultured 5 days, then 24 hours; SP 600125 1 uM, Z-IETD-FMK 10 uM, Z-DEVD-FMK 10 uM
Experimental: Materials and methods used to generate the data shown in this figure are as follows. To examine whether ligand is required for DR6 function in sensory axonal degeneration, a compartmented culture analysis of sensory axon growth and degeneration was carried out as follows. A Campenot nerve cell chamber system was used to isolate neuronal processes (axons) from the cell bodies in different compartments (separate fluid environments), analogous to neuronal cell bodies in one location of the nervous system projecting their axons to a distal target in another location. The assay was carried out as originally described by Campenot (Campenot et al., J. Neurosci. 11(4): 1126-39 (1991)) with the following modifications. […]
To trigger local axonal degeneration, NGF-containing medium from axonal compartments was substituted with neurobasal medium with an NGF blocking antibody (anti-NGF, Genentech, Inc., 20 ug/ml). Zero hours, 6 hours, or 24 to 48 hours following NGF deprivation, sensory neurons were fixed in 4% PFA for 30 minutes at room temperature and processed for immunofluorescence staining with axonal marker TUJ-1 (Covance, 1:500 dilution) to visualize degenerating axons by fluorescence microscopy (FIG. 11B) (as above described in Example 7). […]

`Oc1c2ccccc2c2c3c(cccc13)N=N2` [JNK inhibitor, SP 600125] was tested. Which “sensory axonal degeneration after NGF deprivation” value did it give?
The value was “delayed”.
